PubChem BioAssay AID1259405 | NCATS | 2018

Screen: 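Silenced genes that increase secreted GFP made by CHO cells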 (primary screen)
Cells: Chinese hamster CHO-K1 ovary cells with stable secreted eGFP expression
Reagent: single siRNA against mouse genes, 0.8 pmol siRNA per well (2 µl of 400 nM stock)
Time to read-out: 3 days
Detection: 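Percent of the per-plate non-targeting control median for intracellular GFP per well by laser scanning cytometry and for cell viability by ATP luminescence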
Direction: GFP, % of control: higher = more GFP per well, higher productivity
Hit rule: 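Called active when intracellular GFP, relative to negative control, is at or above 120%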
The whole screen tested about 50,000 reagents; shown is a part drawn at random. Of all reagents, about 4,000 (8%) were called active. 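Mouse siRNA library applied to hamster cells; one well for each siRNA.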 Reagents against one gene are numbered here. Further read-outs or replicates are left out here.

GFP, % of control, by target gene and reagent
Spag6: #1 87.2 inactive; #2 69.4 inactive; #3 131 active
Ypel3: #1 93.8 inactive; #2 90.6 inactive; #3 92.9 inactive
Axin2: #1 133 active; #2 62.6 inactive; #3 131 active
Slc26a5: #1 75 inactive; #2 16.8 inactive; #3 48.5 inactive
Cfdp1: #1 74.7 inactive; #2 40.7 inactive; #3 117 inactive
Scn4a: #1 90.8 inactive; #2 112 inactive; #3 88.2 inactive
Asgr2: #1 100 inactive; #2 34 inactive; #3 112 inactive
Tirap: #1 91.1 inactive; #2 84.1 inactive; #3 86 inactive
Ehd3: #1 50.5 inactive; #2 93 inactive; #3 64.5 inactive
Cpped1: #1 93.1 inactive; #2 109 inactive; #3 99.1 inactive
Stat6: #1 51.3 inactive; #2 61.3 inactive; #3 63 inactive
Orai2: #1 72.7 inactive; #2 64.8 inactive; #3 63.7 inactive
Akap8l: #1 76.9 inactive; #2 85.8 inactive
Mmrn2: #1 30.9 inactive; #2 93.6 inactive; #3 69.5 inactive

Targets above whose gene name begins with M or m:
GFP, % of control, by target gene and reagent
Mmrn2: #1 30.9 inactive; #2 93.6 inactive; #3 69.5 inactive

The listing continues:
GFP, % of control, by target gene and reagent
Aatk: #1 92.8 inactive; #2 121 active; #3 131 active
Gng2: #1 113 inactive; #2 82.3 inactive; #3 74.1 inactive
Dmap1: #1 54.8 inactive; #2 83 inactive; #3 74.8 inactive
Or8h8: #1 85.7 inactive; #2 52.2 inactive; #3 121 active
Npl: #1 87 inactive; #2 118 inactive; #3 70.9 inactive
Tmem231: #1 72.4 inactive; #2 21 inactive; #3 120 active
Wbp11: #1 55.1 inactive; #2 72.6 inactive; #3 82.9 inactive
Atad1: #1 142 active; #2 103 inactive; #3 170 active
Rab11b: #1 122 active; #2 64.7 inactive; #3 97.9 inactive
Ro60: #1 51.8 inactive; #2 93.8 inactive; #3 86.3 inactive
Gmnn: #1 72.8 inactive; #2 53.4 inactive; #3 124 active
Hnrnpll: #1 112 inactive; #2 65.6 inactive; #3 89.7 inactive
Nanos1: #1 81 inactive; #2 80.4 inactive; #3 67.5 inactive
Or10al7: #1 19 inactive; #2 64.3 inactive; #3 27.6 inactive
Zfp39: #1 127 active; #2 78.7 inactive; #3 80.4 inactive
